Measured values taken from US20060083794A1, “Use of an extract from the plant argania spinosa” (priority 2002, published 2006).

Tested on: reconstructed human epidermis (SkinEthic)
Assay: Transepidermal diffusion of 14C testosterone (and metabolites) through reconstructed human epidermis
Type: cell-based
Conditions: Finasterid 10 μm, t = 24 hours

CC(C)(C)NC(=O)[C@H]1CC[C@H]2[C@@H]3CC[C@H]4NC(=O)C=C[C@]4(C)[C@H]3CC[C@]12C [Finasterid, Finasteride]
% 14C Testosterone (transepidermal diffusion) (control = 100): 110%
Nmole steroid (diffused) (total testosterone 4.5, control 2.2): 2.4 nmol
